No constants are given. Whether binding was seen depends on the method and setting. Binding seen in cells or lysates may run through a third protein. Some binding calls cover weakened binding; strength is not graded here.

Chains of the proteins cited; added tags and fusions are not shown. Residues count along the entry.
UniProt P27008: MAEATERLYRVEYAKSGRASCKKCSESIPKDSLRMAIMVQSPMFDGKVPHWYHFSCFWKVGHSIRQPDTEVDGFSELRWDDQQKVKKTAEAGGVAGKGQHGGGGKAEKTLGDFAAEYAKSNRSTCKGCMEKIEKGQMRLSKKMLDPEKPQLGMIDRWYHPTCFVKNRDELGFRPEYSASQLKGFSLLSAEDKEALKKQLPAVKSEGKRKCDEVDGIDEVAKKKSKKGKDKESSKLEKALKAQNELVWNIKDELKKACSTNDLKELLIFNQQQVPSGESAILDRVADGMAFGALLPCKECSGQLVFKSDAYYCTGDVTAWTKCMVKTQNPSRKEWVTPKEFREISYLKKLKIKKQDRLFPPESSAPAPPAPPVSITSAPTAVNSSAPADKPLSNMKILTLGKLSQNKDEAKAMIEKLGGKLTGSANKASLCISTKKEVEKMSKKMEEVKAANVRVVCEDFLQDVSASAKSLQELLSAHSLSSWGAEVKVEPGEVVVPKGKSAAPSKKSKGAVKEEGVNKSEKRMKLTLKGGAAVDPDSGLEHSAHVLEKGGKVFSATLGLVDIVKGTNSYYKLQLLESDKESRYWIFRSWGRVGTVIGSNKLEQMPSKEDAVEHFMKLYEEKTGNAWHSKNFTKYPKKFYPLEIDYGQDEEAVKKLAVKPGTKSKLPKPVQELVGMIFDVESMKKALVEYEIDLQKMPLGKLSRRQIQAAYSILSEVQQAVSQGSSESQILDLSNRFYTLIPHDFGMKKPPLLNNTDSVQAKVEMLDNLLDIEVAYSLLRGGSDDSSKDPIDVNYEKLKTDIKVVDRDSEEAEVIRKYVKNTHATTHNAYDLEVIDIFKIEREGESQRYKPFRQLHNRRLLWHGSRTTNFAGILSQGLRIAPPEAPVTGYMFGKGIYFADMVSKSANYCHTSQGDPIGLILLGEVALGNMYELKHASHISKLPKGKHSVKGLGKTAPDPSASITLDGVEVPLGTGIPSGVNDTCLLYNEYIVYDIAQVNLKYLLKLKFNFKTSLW
UniProt Q9JM53, residues 102-612: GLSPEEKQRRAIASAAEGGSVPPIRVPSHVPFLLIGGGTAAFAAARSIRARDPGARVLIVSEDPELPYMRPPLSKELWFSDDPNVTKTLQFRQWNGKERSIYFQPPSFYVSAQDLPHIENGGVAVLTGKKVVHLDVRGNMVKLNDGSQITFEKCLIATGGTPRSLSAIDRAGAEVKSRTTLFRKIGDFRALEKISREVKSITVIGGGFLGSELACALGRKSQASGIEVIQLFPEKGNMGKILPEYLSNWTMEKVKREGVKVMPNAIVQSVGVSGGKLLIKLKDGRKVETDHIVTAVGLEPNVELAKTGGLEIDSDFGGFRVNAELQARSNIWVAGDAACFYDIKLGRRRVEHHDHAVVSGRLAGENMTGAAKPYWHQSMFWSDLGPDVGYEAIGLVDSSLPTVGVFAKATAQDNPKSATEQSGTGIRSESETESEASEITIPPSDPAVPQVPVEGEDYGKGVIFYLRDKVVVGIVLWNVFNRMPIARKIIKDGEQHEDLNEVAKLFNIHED

For this assay, the target named is poly (ADP-ribose) polymerase 1 (PARP1) (rat (endogenous in neonatal rat cardiomyocytes)) (UniProt P27008). Nature of the assay: co-IP; cardiomyocytes lysed in RIPA buffer; 2 h at room temperature with anti-PARP1 (ab227244) or anti-IgG (ab182016), then Protein A/G beads 1 h; washed, Western blot.

For “apoptosis-inducing factor mitochondria-associated 1 (AIFM1) (from UniProt Q9JM53 102-612)”, the binding result is “binds”.

These data come from PMC11282728.
